These are yes or no findings as the source states them, for the method shown. In cells and extracts the contact can be indirect. Some results given as binding are weak or reduced against the parent protein; the word gives no strength.

The chains behind the UniProt entries cited, without tags or fusion partners.
UniProt P46934: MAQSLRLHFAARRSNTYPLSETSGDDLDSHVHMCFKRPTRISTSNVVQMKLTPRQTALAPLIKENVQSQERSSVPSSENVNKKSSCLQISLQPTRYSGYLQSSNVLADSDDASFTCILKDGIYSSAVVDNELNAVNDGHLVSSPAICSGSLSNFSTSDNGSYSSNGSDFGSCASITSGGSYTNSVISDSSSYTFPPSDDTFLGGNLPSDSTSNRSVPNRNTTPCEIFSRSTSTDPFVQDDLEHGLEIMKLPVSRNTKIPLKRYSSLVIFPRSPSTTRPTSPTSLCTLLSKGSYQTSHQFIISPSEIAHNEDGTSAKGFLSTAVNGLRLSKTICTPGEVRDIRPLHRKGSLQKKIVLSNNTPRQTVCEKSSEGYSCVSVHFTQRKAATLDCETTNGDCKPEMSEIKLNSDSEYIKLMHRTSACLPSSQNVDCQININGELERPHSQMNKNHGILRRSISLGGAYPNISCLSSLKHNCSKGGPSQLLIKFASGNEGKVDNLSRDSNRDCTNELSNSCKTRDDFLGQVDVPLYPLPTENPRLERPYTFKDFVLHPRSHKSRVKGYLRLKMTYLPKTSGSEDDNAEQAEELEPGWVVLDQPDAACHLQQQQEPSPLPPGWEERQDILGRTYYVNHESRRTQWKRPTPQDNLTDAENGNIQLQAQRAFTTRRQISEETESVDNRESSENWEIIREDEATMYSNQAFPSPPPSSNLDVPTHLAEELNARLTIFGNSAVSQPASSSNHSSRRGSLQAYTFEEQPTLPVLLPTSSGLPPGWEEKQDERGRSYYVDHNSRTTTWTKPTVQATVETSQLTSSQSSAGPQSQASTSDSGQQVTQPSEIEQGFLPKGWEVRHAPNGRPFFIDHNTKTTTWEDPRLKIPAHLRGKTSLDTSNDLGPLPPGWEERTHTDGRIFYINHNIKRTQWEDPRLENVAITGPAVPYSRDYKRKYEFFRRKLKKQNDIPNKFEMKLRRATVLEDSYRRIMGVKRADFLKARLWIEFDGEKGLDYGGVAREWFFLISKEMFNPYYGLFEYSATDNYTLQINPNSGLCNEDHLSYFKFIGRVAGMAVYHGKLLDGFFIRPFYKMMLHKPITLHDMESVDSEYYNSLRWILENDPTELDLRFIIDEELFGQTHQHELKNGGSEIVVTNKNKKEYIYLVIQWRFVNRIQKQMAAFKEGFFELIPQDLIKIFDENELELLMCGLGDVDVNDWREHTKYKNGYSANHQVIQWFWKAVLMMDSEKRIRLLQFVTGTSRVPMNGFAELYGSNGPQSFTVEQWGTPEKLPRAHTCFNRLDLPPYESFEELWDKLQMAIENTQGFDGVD
UniProt Q01196: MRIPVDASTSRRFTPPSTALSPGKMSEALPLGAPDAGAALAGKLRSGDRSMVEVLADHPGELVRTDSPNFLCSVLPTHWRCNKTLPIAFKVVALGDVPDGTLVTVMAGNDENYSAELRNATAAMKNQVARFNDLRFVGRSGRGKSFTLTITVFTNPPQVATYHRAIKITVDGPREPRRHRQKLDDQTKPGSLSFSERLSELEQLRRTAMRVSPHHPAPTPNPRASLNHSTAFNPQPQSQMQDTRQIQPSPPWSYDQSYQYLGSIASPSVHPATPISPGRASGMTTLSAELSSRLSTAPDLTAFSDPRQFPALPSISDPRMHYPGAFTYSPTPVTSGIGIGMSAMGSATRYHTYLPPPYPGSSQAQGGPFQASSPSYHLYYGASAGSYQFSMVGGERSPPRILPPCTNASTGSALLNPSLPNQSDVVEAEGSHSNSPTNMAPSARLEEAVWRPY

This assay has as its target Flag-labeled NEDD4 (UniProt P46934). As to the kind of experiment: co-IP; Myc-Runx1 and 3xFlag-NEDD4 co-transfected into BMSCs, 48 h; lysate in ice-cold IP buffer; antibodies against Myc or Flag, Protein A/G agarose, 4 °C; western blot. On the technique in general: A western blot detects proteins with antibodies after separation by electrophoresis.

As to “Myc-tagged Runx1 (from UniProt Q01196 1-453)”, the binding result was “binds”.

Values taken from PMC10167365.
